Assay [1] concerns the target T1, MEKK2 (printed as mitogen-activated protein kinase kinase 2) (human (endogenous in MDA-MB-231 and MDA-MB-468)) (UniProt Q9Y2U5).
T1 sequence: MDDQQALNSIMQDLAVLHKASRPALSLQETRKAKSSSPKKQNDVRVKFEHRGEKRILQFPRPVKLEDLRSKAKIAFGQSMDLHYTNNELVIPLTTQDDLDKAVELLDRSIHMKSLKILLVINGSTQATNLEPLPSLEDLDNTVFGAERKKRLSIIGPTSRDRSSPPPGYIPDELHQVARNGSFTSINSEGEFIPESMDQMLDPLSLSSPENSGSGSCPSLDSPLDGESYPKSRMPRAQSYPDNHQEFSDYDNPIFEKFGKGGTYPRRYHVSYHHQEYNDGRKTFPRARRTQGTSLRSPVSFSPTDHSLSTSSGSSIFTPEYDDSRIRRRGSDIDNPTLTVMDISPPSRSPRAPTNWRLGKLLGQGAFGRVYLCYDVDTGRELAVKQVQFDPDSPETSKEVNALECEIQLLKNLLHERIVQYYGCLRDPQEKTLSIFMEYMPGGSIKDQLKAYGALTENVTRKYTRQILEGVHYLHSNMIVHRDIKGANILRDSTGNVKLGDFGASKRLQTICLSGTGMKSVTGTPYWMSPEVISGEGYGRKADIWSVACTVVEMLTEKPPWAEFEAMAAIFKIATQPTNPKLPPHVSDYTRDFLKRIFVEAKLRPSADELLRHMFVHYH
The experiment in a line: co-IP; MDA-MB-231 and MDA-MB-468 cell lysates IP with anti-MEKK2 antibody, detection with anti-MEKK2, STK38 and SMURF1 antibodies.

By UniProt entry, the sequences of proteins in these tests, tags left out.
UniProt Q9HCE7: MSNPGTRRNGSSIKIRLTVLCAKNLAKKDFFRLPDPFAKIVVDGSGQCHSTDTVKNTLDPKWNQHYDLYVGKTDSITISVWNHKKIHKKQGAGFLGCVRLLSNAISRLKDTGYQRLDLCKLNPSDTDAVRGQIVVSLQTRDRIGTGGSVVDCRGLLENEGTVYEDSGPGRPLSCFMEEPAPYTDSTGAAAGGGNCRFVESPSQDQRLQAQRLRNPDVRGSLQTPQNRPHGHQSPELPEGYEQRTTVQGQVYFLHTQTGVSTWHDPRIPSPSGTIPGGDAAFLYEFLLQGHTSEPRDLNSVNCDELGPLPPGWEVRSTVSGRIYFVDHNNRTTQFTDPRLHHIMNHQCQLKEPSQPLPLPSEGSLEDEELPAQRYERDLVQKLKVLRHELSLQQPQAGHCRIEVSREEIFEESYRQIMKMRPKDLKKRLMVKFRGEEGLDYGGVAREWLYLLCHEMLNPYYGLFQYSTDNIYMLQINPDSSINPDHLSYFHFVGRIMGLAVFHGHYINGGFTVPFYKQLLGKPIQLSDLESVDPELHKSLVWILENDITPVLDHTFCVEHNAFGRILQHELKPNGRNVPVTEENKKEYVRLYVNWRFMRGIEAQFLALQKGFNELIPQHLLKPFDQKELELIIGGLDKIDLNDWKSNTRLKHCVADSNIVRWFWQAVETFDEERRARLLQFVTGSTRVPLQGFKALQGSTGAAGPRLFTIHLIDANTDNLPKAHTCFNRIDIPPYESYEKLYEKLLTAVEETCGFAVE
UniProt Q15208: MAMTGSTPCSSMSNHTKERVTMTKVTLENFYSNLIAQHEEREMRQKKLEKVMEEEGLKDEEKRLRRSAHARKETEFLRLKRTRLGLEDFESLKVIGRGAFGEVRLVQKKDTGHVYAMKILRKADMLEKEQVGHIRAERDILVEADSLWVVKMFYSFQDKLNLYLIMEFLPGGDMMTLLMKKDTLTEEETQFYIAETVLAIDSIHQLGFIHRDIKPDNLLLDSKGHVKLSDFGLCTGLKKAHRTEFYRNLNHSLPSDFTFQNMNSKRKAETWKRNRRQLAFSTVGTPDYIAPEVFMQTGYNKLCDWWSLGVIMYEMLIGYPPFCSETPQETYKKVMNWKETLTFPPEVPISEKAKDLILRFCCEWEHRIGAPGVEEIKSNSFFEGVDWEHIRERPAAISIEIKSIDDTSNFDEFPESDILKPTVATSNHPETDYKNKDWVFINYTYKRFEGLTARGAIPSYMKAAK

The target of assay [2] is SMAD-specific E3 ubiquitin protein ligase 1 (SMURF1) (human (endogenous in MDA-MB-231 and MDA-MB-468)) (UniProt Q9HCE7). The experiment in a line: co-IP; MDA-MB-231 and MDA-MB-468 transfected with CAPG-171aa-FLAG; whole-cell lysates IP with anti-SMURF1 and IgG antibodies, detection with anti-FLAG, STK38, SMURF1 and GAPDH antibodies.

Results are given in words; binding and its absence hold for the method and conditions named. In cells and extracts the contact can be indirect. Some results given as binding are weak or reduced against the parent protein; the word gives no strength.

As to “SMAD-specific E3 ubiquitin protein ligase 1 (SMURF1) (from UniProt Q9HCE7 1-757)”, in assay [1], the binding entry is “binds”.

For “serine/threonine kinase 38 (STK38), in TNBC cells (from UniProt Q15208 1-465)”, the binding result in assay [2] and in assay [1] was “binds” throughout.
